Protein sequences, listed by entry. Tags and fused reporters are not part of them.
UniProt P40227: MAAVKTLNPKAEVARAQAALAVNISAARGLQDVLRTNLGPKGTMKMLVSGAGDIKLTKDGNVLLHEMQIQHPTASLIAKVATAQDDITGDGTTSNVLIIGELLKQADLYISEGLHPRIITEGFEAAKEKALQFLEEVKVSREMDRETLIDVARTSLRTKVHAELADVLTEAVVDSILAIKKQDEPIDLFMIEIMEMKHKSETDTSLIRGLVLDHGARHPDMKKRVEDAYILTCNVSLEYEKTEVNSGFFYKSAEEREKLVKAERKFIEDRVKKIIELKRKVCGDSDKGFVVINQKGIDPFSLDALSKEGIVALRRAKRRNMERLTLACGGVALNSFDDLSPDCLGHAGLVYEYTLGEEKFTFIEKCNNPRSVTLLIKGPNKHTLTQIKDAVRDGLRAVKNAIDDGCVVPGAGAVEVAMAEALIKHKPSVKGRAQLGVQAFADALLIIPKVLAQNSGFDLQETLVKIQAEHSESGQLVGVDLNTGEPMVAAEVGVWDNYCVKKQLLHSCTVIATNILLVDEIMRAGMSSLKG
UniProt P35222: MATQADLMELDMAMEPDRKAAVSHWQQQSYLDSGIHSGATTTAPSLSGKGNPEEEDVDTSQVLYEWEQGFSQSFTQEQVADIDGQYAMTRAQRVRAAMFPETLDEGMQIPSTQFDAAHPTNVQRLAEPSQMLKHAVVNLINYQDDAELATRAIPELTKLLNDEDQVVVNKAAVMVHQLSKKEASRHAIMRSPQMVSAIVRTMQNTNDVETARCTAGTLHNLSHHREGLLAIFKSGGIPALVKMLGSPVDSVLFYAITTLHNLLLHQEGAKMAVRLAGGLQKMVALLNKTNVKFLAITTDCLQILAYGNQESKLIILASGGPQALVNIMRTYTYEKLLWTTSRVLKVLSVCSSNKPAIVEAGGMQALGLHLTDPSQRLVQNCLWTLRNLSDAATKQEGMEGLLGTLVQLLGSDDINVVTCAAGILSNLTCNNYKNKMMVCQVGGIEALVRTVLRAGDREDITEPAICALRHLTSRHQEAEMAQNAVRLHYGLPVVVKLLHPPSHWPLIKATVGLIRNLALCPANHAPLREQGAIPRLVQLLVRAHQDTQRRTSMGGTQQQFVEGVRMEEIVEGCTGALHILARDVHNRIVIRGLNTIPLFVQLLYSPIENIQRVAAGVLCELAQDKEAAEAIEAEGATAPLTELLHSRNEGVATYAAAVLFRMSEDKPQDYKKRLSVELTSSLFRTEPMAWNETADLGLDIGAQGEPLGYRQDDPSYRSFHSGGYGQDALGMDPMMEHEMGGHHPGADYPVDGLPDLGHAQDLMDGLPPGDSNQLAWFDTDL

In PMC12520511:

Molecular target: Flag‐tagged CCT6A (UniProt P40227)
Experiment: affinity purification with mass spectrometry; IP of Flag-tagged CCT6A in HEK293T cells, silver staining, LC-MS/MS; compared with a negative control

- binding: binds
Substance: β‐catenin (from UniProt P35222 1-781)

Results are given in words; binding and its absence hold for the method and conditions named. Binding seen in cells or lysates may run through a third protein. A yes stands for co-enrichment or nearness to the bait. Other partners may have been found.
